These are yes or no findings as the source states them, for the method shown. In cells and extracts the contact can be indirect. A yes stands for co-enrichment or nearness to the bait. Other partners may have been found.

By UniProt entry, the sequences of proteins in these tests, tags left out. Residues count along the entry.
sLUR-517GFP (Q14160, residues 1-517): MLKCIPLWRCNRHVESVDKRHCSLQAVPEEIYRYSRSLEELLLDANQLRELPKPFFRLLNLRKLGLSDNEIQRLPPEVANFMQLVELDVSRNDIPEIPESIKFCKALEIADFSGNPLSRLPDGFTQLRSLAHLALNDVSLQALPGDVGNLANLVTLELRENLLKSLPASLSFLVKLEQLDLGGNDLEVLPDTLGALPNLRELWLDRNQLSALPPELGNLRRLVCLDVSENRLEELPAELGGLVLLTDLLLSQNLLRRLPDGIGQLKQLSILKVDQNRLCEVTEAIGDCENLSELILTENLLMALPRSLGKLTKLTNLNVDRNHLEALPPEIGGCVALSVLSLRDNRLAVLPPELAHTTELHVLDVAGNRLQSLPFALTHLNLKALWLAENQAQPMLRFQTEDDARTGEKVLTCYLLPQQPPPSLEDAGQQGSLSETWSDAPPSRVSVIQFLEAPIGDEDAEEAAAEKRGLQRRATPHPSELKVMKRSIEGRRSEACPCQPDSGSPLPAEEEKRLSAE
sLUR-420GFP (Q14160, residues 1-420): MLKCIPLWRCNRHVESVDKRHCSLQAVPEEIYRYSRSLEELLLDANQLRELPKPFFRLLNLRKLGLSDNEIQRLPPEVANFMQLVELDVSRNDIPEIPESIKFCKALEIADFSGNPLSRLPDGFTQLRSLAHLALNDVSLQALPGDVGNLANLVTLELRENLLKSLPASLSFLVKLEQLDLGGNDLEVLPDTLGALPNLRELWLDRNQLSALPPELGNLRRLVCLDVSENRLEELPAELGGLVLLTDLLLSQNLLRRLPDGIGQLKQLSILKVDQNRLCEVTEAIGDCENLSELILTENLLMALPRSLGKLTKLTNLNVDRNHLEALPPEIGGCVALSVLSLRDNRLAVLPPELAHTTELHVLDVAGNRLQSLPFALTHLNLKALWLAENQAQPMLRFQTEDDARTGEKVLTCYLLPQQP
sLUR-402GFP (Q14160, residues 1-402): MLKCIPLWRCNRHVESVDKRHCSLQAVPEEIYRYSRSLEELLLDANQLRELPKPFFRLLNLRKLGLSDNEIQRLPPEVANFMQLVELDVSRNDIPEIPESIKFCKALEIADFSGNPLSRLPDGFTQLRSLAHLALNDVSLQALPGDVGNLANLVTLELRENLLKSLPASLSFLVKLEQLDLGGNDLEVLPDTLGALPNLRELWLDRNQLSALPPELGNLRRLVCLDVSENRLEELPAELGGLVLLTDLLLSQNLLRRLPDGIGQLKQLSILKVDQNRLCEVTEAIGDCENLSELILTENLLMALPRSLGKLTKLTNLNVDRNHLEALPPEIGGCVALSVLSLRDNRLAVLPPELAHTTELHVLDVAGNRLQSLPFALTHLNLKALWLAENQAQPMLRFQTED

Targets include sLUR-420GFP (human) (UniProt Q14160); sLUR-517GFP (human) (UniProt Q14160); sLUR-402GFP (human) (UniProt Q14160).
Common to all, as to assay: affinity purification with mass spectrometry; in-cell cross-linking with BMPEO3 (cysteine-specific, 14.7 Å spacer arm) before lysis; GFP-trap; LC-MS/MS; list filtered against wt DLD1 cells and sLUR-P305L-517GFP cells

B1: Llgl1 (protein, UniProt Q15334 1-1064)
chain: MMKFRFRRQGADPQREKLKQELFAFNKTVEHGFPNQPSALAFDPELRIMAIGTRSGAVKIYGAPGVEFTGLHRDAATVTQMHFLTGQGRLLSLLDDSSLHLWEIVHHNGCAHLEEALSFQLPSRPGFDGASAPLSLTRVTVVLLVAASDIAALGTEGSSVFFLDVTTLTLLEGQTLAPGEVLRSVPDDYRCGKALGPVESLQGHLRDPTKILIGYSRGLLVIWNQASQCVDHIFLGNQQLESLCWGRDSSTVVSSHSDGSYAVWSVDAGSFPTLQPTVATTPYGPFPCKAINKILWRNCESGGHFIIFSGGMPRASYGDRHCVSVLRAETLVTLDFTSRIIDFFTVHSTRPEDEFDDPQALAVLLEEELVVLDLQTPGWPAVPAPYLAPLHSSAITCSAHVASVPAKLWARIVSAGEQQSPQPVSSALSWPITGGRNLAQEPSQRGLLLTGHEDGTVRFWDASGVALRPLYKLSTAGLFQTDCEHADSLAQAAEDDWPPFRKVGCFDPYSDDPRLGVQKVALCKYTAQMVVAGTAGQVLVLELSDVPVEQAVSVAIIDLLQDREGFTWKGHERLSPRTGPLPWPAGFQPRVLVQCLPPAAVTAVTLHTEWSLVAFGTSHGFGLFDYQRKSPVLARCTLHPNDSLAMEGPLSRVKSLKKSLRQSFRRIRKSRVSGKKRAANASSKLQEANAQLAEQACPHDVEMTPVQRRIEPRSADDSLSGVVRCLYFADTFLRDGAHHGPTMWAGTNSGSVFAYALEVPAAAVGGEKRPEQAVEAVLGKEVQLMHRAPVVAIAVLDGRGRPLPEPYEASRDLAQAPDMQGGHAVLIASEEQFKVFTLPKVSAKTKFKLTAHEGCRVRKVALATFASVACEDYAETCLACLTNLGDVHVFSVPGLRPQVHYSCIRKEDISGIASCVFTRHGQGFYLISPSEFERFSLSARNITEPLCSLDINWPRDATQASYRIRESPKLSQANGTPSILLAPQSLDGSPDPAHSMGPDTPEPPEAALSPMSIDSATSADTTLDTTGDVTVEDVKDFLGSSEESEKNLRNLAEDEAHACAILIK
For B1, the binding result with sLUR-420GFP (human) and with sLUR-517GFP (human) was “binds” each time.

B2: MPP7 (protein, UniProt Q5T2T1 1-576)
chain: MPALSTGSGSDTGLYELLAALPAQLQPHVDSQEDLTFLWDMFGEKSLHSLVKIHEKLHYYEKQSPVPILHGAAALADDLAEELQNKPLNSEIRELLKLLSKPNVKALLSVHDTVAQKNYDPVLPPMPEDIDDEEDSVKIIRLVKNREPLGATIKKDEQTGAIIVARIMRGGAADRSGLIHVGDELREVNGIPVEDKRPEEIIQILAQSQGAITFKIIPGSKEETPSKEGKMFIKALFDYNPNEDKAIPCKEAGLSFKKGDILQIMSQDDATWWQAKHEADANPRAGLIPSKHFQERRLALRRPEILVQPLKVSNRKSSGFRKSFRLSRKDKKTNKSMYECKKSDQYDTADVPTYEEVTPYRRQTNEKYRLVVLVGPVGVGLNELKRKLLISDTQHYGVTVPHTTRARRSQESDGVEYIFISKHLFETDVQNNKFIEYGEYKNNYYGTSIDSVRSVLAKNKVCLLDVQPHTVKHLRTLEFKPYVIFIKPPSIERLRETRKNAKIISSRDDQGAAKPFTEEDFQEMIKSAQIMESQYGHLFDKIIINDDLTVAFNELKTTFDKLETETHWVPVSWLHS
For B2, the binding result with sLUR-420GFP (human) and with sLUR-517GFP (human) was “binds” each time.

B3: Dlg3 (protein, UniProt Q92796 1-817)
chain: MHKHQHCCKCPECYEVTRLAALRRLEPPGYGDWQVPDPYGPGGGNGASAGYGGYSSQTLPSQAGATPTPRTKAKLIPTGRDVGPVPPKPVPGKSTPKLNGSGPSWWPECTCTNRDWYEQVNGSDGMFKYEEIVLERGNSGLGFSIAGGIDNPHVPDDPGIFITKIIPGGAAAMDGRLGVNDCVLRVNEVDVSEVVHSRAVEALKEAGPVVRLVVRRRQPPPETIMEVNLLKGPKGLGFSIAGGIGNQHIPGDNSIYITKIIEGGAAQKDGRLQIGDRLLAVNNTNLQDVRHEEAVASLKNTSDMVYLKVAKPGSLHLNDMYAPPDYASTFTALADNHISHNSSLGYLGAVESKVSYPAPPQVPPTRYSPIPRHMLAEEDFTREPRKIILHKGSTGLGFNIVGGEDGEGIFVSFILAGGPADLSGELRRGDRILSVNGVNLRNATHEQAAAALKRAGQSVTIVAQYRPEEYSRFESKIHDLREQMMNSSMSSGSGSLRTSEKRSLYVRALFDYDRTRDSCLPSQGLSFSYGDILHVINASDDEWWQARLVTPHGESEQIGVIPSKKRVEKKERARLKTVKFHARTGMIESNRDFPGLSDDYYGAKNLKGQEDAILSYEPVTRQEIHYARPVIILGPMKDRVNDDLISEFPHKFGSCVPHTTRPRRDNEVDGQDYHFVVSREQMEKDIQDNKFIEAGQFNDNLYGTSIQSVRAVAERGKHCILDVSGNAIKRLQQAQLYPIAIFIKPKSIEALMEMNRRQTYEQANKIYDKAMKLEQEFGEYFTAIVQGDSLEEIYNKIKQIIEDQSGHYIWVPSPEKL
As for B3, the binding entry with sLUR-420GFP (human) and with sLUR-517GFP (human) was “binds” throughout.

B4: PTK7 (protein, UniProt Q13308 31-1070)
chain: AIVFIKQPSSQDALQGRRALLRCEVEAPGPVHVYWLLDGAPVQDTERRFAQGSSLSFAAVDRLQDSGTFQCVARDDVTGEEARSANASFNIKWIEAGPVVLKHPASEAEIQPQTQVTLRCHIDGHPRPTYQWFRDGTPLSDGQSNHTVSSKERNLTLRPAGPEHSGLYSCCAHSAFGQACSSQNFTLSIADESFARVVLAPQDVVVARYEEAMFHCQFSAQPPPSLQWLFEDETPITNRSRPPHLRRATVFANGSLLLTQVRPRNAGIYRCIGQGQRGPPIILEATLHLAEIEDMPLFEPRVFTAGSEERVTCLPPKGLPEPSVWWEHAGVRLPTHGRVYQKGHELVLANIAESDAGVYTCHAANLAGQRRQDVNITVATVPSWLKKPQDSQLEEGKPGYLDCLTQATPKPTVVWYRNQMLISEDSRFEVFKNGTLRINSVEVYDGTWYRCMSSTPAGSIEAQARVQVLEKLKFTPPPQPQQCMEFDKEATVPCSATGREKPTIKWERADGSSLPEWVTDNAGTLHFARVTRDDAGNYTCIASNGPQGQIRAHVQLTVAVFITFKVEPERTTVYQGHTALLQCEAQGDPKPLIQWKGKDRILDPTKLGPRMHIFQNGSLVIHDVAPEDSGRYTCIAGNSCNIKHTEAPLYVVDKPVPEESEGPGSPPPYKMIQTIGLSVGAAVAYIIAVLGLMFYCKKRCKAKRLQKQPEGEEPEMECLNGGPLQNGQPSAEIQEEVALTSLGSGPAATNKRHSTSDKMHFPRSSLQPITTLGKSEFGEVFLAKAQGLEEGVAETLVLVKSLQSKDEQQQLDFRRELEMFGKLNHANVVRLLGLCREAEPHYMVLEYVDLGDLKQFLRISKSKDEKLKSQPLSTKQKVALCTQVALGMEHLSNNRFVHKDLAARNCLVSAQRQVKVSALGLSKDVYNSEYYHFRQAWVPLRWMSPEAILEGDFSTKSDVWAFGVLMWEVFTHGEMPHGGQADDEVLADLQAGKARLPQPEGCPSKLYRLMQRCWALSPKDRPSFSEIASALGDSTVDSKP
On to B4, for which the binding entry with sLUR-420GFP (human), in the assay with sLUR-402GFP (human) and with sLUR-517GFP (human) was “binds” throughout.

B5: Llgl2 (protein, UniProt Q6P1M3 1-1020)
chain: MRRFLRPGHDPVRERLKRDLFQFNKTVEHGFPHQPSALGYSPSLRILAIGTRSGAIKLYGAPGVEFMGLHQENNAVTQIHLLPGQCQLVTLLDDNSLHLWSLKVKGGASELQEDESFTLRGPPGAAPSATQITVVLPHSSCELLYLGTESGNVFVVQLPAFRALEDRTISSDAVLQRLPEEARHRRVFEMVEALQEHPRDPNQILIGYSRGLVVIWDLQGSRVLYHFLSSQQLENIWWQRDGRLLVSCHSDGSYCQWPVSSEAQQPEPLRSLVPYGPFPCKAITRILWLTTRQGLPFTIFQGGMPRASYGDRHCISVIHDGQQTAFDFTSRVIGFTVLTEADPAATFDDPYALVVLAEEELVVIDLQTAGWPPVQLPYLASLHCSAITCSHHVSNIPLKLWERIIAAGSRQNAHFSTMEWPIDGGTSLTPAPPQRDLLLTGHEDGTVRFWDASGVCLRLLYKLSTVRVFLTDTDPNENFSAQGEDEWPPLRKVGSFDPYSDDPRLGIQKIFLCKYSGYLAVAGTAGQVLVLELNDEAAEQAVEQVEADLLQDQEGYRWKGHERLAARSGPVRFEPGFQPFVLVQCQPPAVVTSLALHSEWRLVAFGTSHGFGLFDHQQRRQVFVKCTLHPSDQLALEGPLSRVKSLKKSLRQSFRRMRRSRVSSRKRHPAGPPGEAQEGSAKAERPGLQNMELAPVQRKIEARSAEDSFTGFVRTLYFADTYLKDSSRHCPSLWAGTNGGTIYAFSLRVPPAERRMDEPVRAEQAKEIQLMHRAPVVGILVLDGHSVPLPEPLEVAHDLSKSPDMQGSHQLLVVSEEQFKVFTLPKVSAKLKLKLTALEGSRVRRVSVAHFGSRRAEDYGEHHLAVLTNLGDIQVVSLPLLKPQVRYSCIRREDVSGIASCVFTKYGQGFYLISPSEFERFSLSTKWLVEPRCLVDSAETKNHRPGNGAGPKKAPSRARNSGTQSDGEEKQPGLVMERALLSDERVLKEIQSTLEGDRGSGNWRSHRAAVGCSLSNGGAE
For the molecule B5, the binding result with sLUR-420GFP (human) and in the assay with sLUR-517GFP (human) was “binds” each time.

Values taken from paper PMC8569552.
